The text below walks through data of patent publication US20180251847A1, “METHOD OF PREDICTING THE TUMOR RESPONSE TO DNA METHYLATION INHIBITORS AND ALTERNATIVE THERAPEUTIC REGIMEN FOR OVERCOMING RESISTANCE” (PALACKY UNIVERSITY, OLOMOUC, priority 2014, published 2018).

For one assay, the system named is R2.2 (HCT116-RDAC). The experiment in a line: MTT based cell survival assay, DAC resistant HCT116 clone R2.2. Details: species or system human. The protocol: (§1) The DAC resistant HCT116 cell lines were developed using two methods.
(§2) The method is primarily based on reduction of yellow colored tetrazolium salt, 3-(4,5-dimethylthiazol-2-yl)-2,5-diphenyltetrazolium bromide (MTT) to insoluble purple colored formazan crystals by NAD(P)H-dependent oxidoreductase enzymes in mitochondria of the viable cell.
(§3) Cells in 80 μL of medium were plated in each of the experimental and the control wells, followed by addition of 20 μL medium with five-fold drug concentration to experimental wells. The wells with medium alone were included alongside as blank for absorbance readings. After 72 h of drug treatment, 10 μL MTT (Sigma-Aldrich) prepared in 1×PBS (5 mg/mL) was added to all wells including blank and control, and incubated until the purple formazan crystals were visible after which 100 μL of detergent (10% SDS, pH: 5.5) was added and the plates were incubated overnight to solubilize the formazan and the cellular material.
(§4) Cross resistance was determined as the fold increase, whereas, the sensitivity was determined as the fold decrease in the IC50 of the drugs for the resistant cell lines compared to their genetically identical drug sensitive counterpart.

The subject of another assay is R1.1 (HCT116-RDAC). The assay is described as follows: MTT based cell survival assay, DAC resistant HCT116 clone R1.1. Also on record: species or system human. The protocol: as §1, §2, §3, §4
Another assay deals with R1.4 (HCT116-RDAC). The assay is described as follows: MTT based cell survival assay, DAC resistant HCT116 clone R1.4. Also on record: species or system human. The procedure:
as §1, §2, §3, §4

A further assay deals with R1.3 (HCT116-RDAC). The assay is described as follows: MTT based cell survival assay, DAC resistant HCT116 clone R1.3. To be noted: Homo sapiens, HCT-116; R1.3, MTT, 72 h drug treatment. The procedure:
as §1, §2, §3, §4

In another assay the test system is HCT116. The assay is described as follows: MTT based cell survival assay, parental HCT116. Particulars: Homo sapiens, HCT-116, 72 h drug treatment. The procedure: To study the mechanism of resistance towards DNA methylation inhibitor, 2′-deoxy-5-azacytidine, we used the human colorectal cancer cell line (HCT116), human promyelocytic leukemia cells (HL-60), and human breast adenocarcinoma cell line (MCF-7) obtained from American Type Culture Collection (Manassas, Va.). The cell lines were cultured in complete growth media (Sigma-Aldrich, St. Louis, Mo.), supplemented with fetal bovine serum (FBS, PAN-Biotech GmbH, Aidenbach, Germany), 100 U/mL penicillin (Biotika, Slovenská L'upča, Slovak Republic) and 50 μg/mL streptomycin (Sigma-Aldrich), and the cultures were maintained at 37° C. and 5% CO2, in a humidified incubator. […]
To determine the IC50 of the epigenetic drugs (Tocris Bioscience, Bristol, United Kingdom), four independent experiments were performed using triplicate wells of 96 well plates. […] The wells with medium alone were included alongside as blank for absorbance readings. […]
as §4

The test system of another assay is R1.2 (HCT116-RDAC). The experiment in a line: MTT based cell survival assay, DAC resistant HCT116 clone R1.2. Details: species or system human. The protocol:
as §1, §2, §3, §4

What is called IC50 is the concentration at which inhibition is half-maximal. Regarding `O=C(CCCCCCC(=O)Nc1ccccc1)NO` [Vorinostat], the IC50 is 800 nM in the assay on R2.2 (HCT116-RDAC) (Homo sapiens, HCT-116, R2.2, MTT, 72 h drug treatment); 840 nM with R1.1 (HCT116-RDAC) (Homo sapiens, HCT-116, R1.1, MTT, 72 h drug treatment); 920 nM in the assay on R1.4 (HCT116-RDAC) (Homo sapiens, HCT-116, R1.4, MTT, 72 h drug treatment); 860 nM with R1.3 (HCT116-RDAC); 680 nM in the assay with HCT116; 940 nM with R1.2 (HCT116-RDAC) (Homo sapiens, HCT-116, R1.2, MTT, 72 h drug treatment). The “fold change (resistance index)” value in the assay on R2.2 (HCT116-RDAC) (IC50 R2.2 / IC50 HCT116) was “(1.19) fold”; with R1.1 (HCT116-RDAC) (IC50 R1.1 / IC50 HCT116), “(1.24) fold”; in the assay with R1.4 (HCT116-RDAC) (IC50 R1.4 / IC50 HCT116), “(1.37) fold”; in the assay with R1.2 (HCT116-RDAC) (IC50 R1.2 / IC50 HCT116), “(1.39) fold”.
